Data from patent US20070010581A1, “Use of 2,5-dihydroxybenzenesulfonic compounds for the treatment of disorders based on an impairment of no production and/or of regulation of edhf function” (priority 2002, published 2007).
At least one structure is not confirmed: it was looked up by name or label, or the drawing left a doubt.

Assays:
[1] = test system: human penile resistance arteries (HPRA); assay: Vascular reactivity of resistance penile arteries (myograph, isometric tension)
Text: Penile small arteries, helicine arteries (lumen diameter 150-400 μm), which are the terminal branches of deep penile arteries, were dissected by carefully removing the adhering trabecular tissue, and arterial ring segments (of 2 mm length) were subsequently mounted on two 40 μm wires on microvascular double Halpern-Mulvany myographs (J.P. Trading, Aarhus, Denmark) for isometric tension recordings. […] Passive tension and internal circumference of the vascular segments when relaxed in situ under a transmural pressure of […] (L100) were determined. […] The preparations were then exposed to 125 mM K^+ (KPSS, equimolar substitution of NaCl for KCl in PSS) and the contractile response was measured. The arteries were contracted with 1 μm norepinephrine (approximately 80% of KPSS induced contraction) and relaxation responses were evaluated by cumulative additions of compounds to the chambers.
Relaxation responses are expressed as percentage of total relaxation (loss in tone) induced by the addition of 0.1 mM papaverine HCl to the chambers at the end of the experiment. All data are expressed as mean±standard error. […] Erectile responses were determined by measuring the area under the curve (AUC) of the intracavemosal pressure increases to rat cavernosal nerve stimulation normalized by mean arterial pressure values. […]

[2] = test system: human corpus cavernosum trabecular strips; assay: Organ chamber studies with corpus cavernosum strips

CC(=O)OCC[N+](C)(C)C [acetylcholine]
ACh-induced relaxation of penile arteries after NOS and COX inhibition ([1]; L-NNA (100 μM) and indomethacin (5 μM)): significantly reduced | ACh-induced relaxations of HPRA in the presence of NOS and COX inhibition, high extracellular K+ ([1]; high extracellular K+ concentration (35 mM)): abolished | relaxation of strips of trabecular tissue ([2]; ACh 1 nM to 10 μM): concentration-dependent relaxation | relaxation of strips of trabecular tissue after NOS and COX inhibition ([2]; combined treatment with L-NNA (100 μM) and indomethacin (5 μM)): nearly abolished
